{"source": "patent US20190262453A1", "about": "“DESIGN AND COMPOSITION OF CELL-STABILIZED PHARMACEUTICAL FORMULATIONS” (THE REGENTS OF THE UNIVERSITY OF MICHIGAN, priority 2016, published 2019)", "origin": "cited, not measured here", "settings": "in vivo; cited from earlier work", "data": [{"compound": "Nc1nc2ccc(OC(F)(F)F)cc2s1", "note": "[Riluzole]", "values": [{"measurement": "Vd", "result": 3.4, "unit": "L/kg"}]}]}
